# Values of other authors as cited in article PMC8193821 (Annals of the New York Academy of Sciences, 2019).
# Test system: Friedreich Ataxia patients’ iPSC-derived neurons
# Settings: hypothesis test; ref Codazzi F. et al. (2016) Hum Mol Genet
smiles,measurement,value
Cc1ccc(C(=O)NCCCCCC(=O)Nc2ccccc2N)cc1 [HDAC inhibitor 109],FXN (frataxin),↑FXN (frataxin)
